Experimental data: PubChem BioAssay AID1159590 (NIAID, 2016)
Here is a random part of 756 deposited reagents. Of all reagents, 128 (17%) are marked active. 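Calls are two-sided: both reduced and increased p65 nuclear entry count as active.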 A number with no mark means an inactive call. Reagents against one gene are numbered here. The record does not give: the amount of reagent.

Aim: 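Effect of gene knock-down on p65 moving into nuclei after TLR2 stimulation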
System: mouse RAW264.7 macrophage reporter cells expressing GFP-p65 and a Tnf promoter-mCherry
Reagent: single siRNA against mouse genes
Time to read-out: 48 to 72 hours after siRNA transfection, then 40 minutes of ligand
Conditions: Pam3CSK4 (TLR2/1 agonist) for 40 minutes before fixation; dose not given
Read-out: 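GFP-p65 nuclear to cytoplasmic intensity ratio from imaging, normalised per plate by median and MAD, given as robust z against negative controls, mean of replicates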
Direction: p65 nuclear entry z-score: higher = more p65 moved into nuclei than in negative-control wells
Rule for the call: In these data the active calls have p65 nuclear entry z-score, replicate mean at about -1.5 or lower, or at about 1.5 or higher
Calls: active = strong change, up or down; inactive = little change

| gene | reagent | p65 nuclear entry z-score, replicate mean |
| --- | --- | --- |
| Nfkb1 (GeneID 18033) | 1 | 0.335 |
| Nfkb1 (GeneID 18033) | 2 | 0.263 |
| Nfkb1 (GeneID 18033) | 3 | 0.239 |
| Nfkb1 (GeneID 18033) | 4 | 0.663 |
| Nfkb1 (GeneID 18033) | 5 | -0.612 |
| Nfkb1 (GeneID 18033) | 6 | 0.699 |
| Ly96 (GeneID 17087) | 1 | 0.298 |
| Ly96 (GeneID 17087) | 2 | -0.0421 |
| Ly96 (GeneID 17087) | 3 | -0.26 |
| Ly96 (GeneID 17087) | 4 | -0.86 |
| Ly96 (GeneID 17087) | 5 | -0.468 |
| Ly96 (GeneID 17087) | 6 | -0.313 |
| Ptk2b (GeneID 19229) | 1 | 1.07 |
| Ptk2b (GeneID 19229) | 2 | 1.28 |
| Ptk2b (GeneID 19229) | 3 | -0.202 |
| Ptk2b (GeneID 19229) | 4 | 0.455 |
| Ptk2b (GeneID 19229) | 5 | 0.218 |
| Ptk2b (GeneID 19229) | 6 | -0.823 |
| Pik3r5 (GeneID 320207) | 1 | 0.529 |
| Pik3r5 (GeneID 320207) | 2 | 2.11 (active) |
| Pik3r5 (GeneID 320207) | 3 | 0.0466 |
| Pik3r5 (GeneID 320207) | 4 | 0.479 |
| Pik3r5 (GeneID 320207) | 5 | -2.2 (active) |
| Pik3r5 (GeneID 320207) | 6 | -0.347 |
| Tbk1 (GeneID 56480) | 1 | -1.35 |
| Tbk1 (GeneID 56480) | 2 | 1.56 (active) |
| Tbk1 (GeneID 56480) | 3 | -0.709 |
| Tbk1 (GeneID 56480) | 4 | 0.0805 |
| Tbk1 (GeneID 56480) | 5 | -1.16 |
| Tbk1 (GeneID 56480) | 6 | 0.512 |
| Irf3 (GeneID 54131) | 1 | -0.227 |
| Irf3 (GeneID 54131) | 2 | 1.93 (active) |
| Irf3 (GeneID 54131) | 3 | -0.921 |
| Irf3 (GeneID 54131) | 4 | 0.178 |
| Irf3 (GeneID 54131) | 5 | -0.298 |
| Irf3 (GeneID 54131) | 6 | -0.834 |
| Fos (GeneID 14281) | 1 | -3.01 (active) |
| Fos (GeneID 14281) | 2 | -0.346 |
| Fos (GeneID 14281) | 3 | 0.325 |
| Fos (GeneID 14281) | 4 | -1.41 |
| Fos (GeneID 14281) | 5 | -0.0152 |
| Fos (GeneID 14281) | 6 | 0.461 |
| Tbkbp1 (GeneID 73174) | 1 | -0.829 |
| Tbkbp1 (GeneID 73174) | 2 | -1.51 (active) |
| Tbkbp1 (GeneID 73174) | 3 | 1.07 |
| Tbkbp1 (GeneID 73174) | 4 | 8.11 (active) |
| Tbkbp1 (GeneID 73174) | 5 | -0.266 |
| Tbkbp1 (GeneID 73174) | 6 | -1.51 (active) |
| Ptpn6 (GeneID 15170) | 1 | -0.763 |
| Ptpn6 (GeneID 15170) | 2 | -0.89 |
| Ptpn6 (GeneID 15170) | 3 | -3.11 (active) |
| Ptpn6 (GeneID 15170) | 4 | 0.389 |
| Ptpn6 (GeneID 15170) | 5 | 0.749 |
| Ptpn6 (GeneID 15170) | 6 | 2.96 (active) |
| Ikbke (GeneID 56489) | 1 | -0.667 |
| Ikbke (GeneID 56489) | 2 | -0.318 |
| Ikbke (GeneID 56489) | 3 | -0.587 |
| Ikbke (GeneID 56489) | 4 | -0.156 |
| Ikbke (GeneID 56489) | 5 | -0.819 |
| Ikbke (GeneID 56489) | 6 | 1.43 |
| Map2k7 (GeneID 26400) | 1 | 0.969 |
| Map2k7 (GeneID 26400) | 2 | -0.769 |
| Map2k7 (GeneID 26400) | 3 | 0.0374 |
| Map2k7 (GeneID 26400) | 4 | 0.761 |
| Map2k7 (GeneID 26400) | 5 | 0.413 |
| Map2k7 (GeneID 26400) | 6 | -1.29 |
| Nfkb2 (GeneID 18034) | 1 | 0.11 |
| Nfkb2 (GeneID 18034) | 2 | -0.088 |
| Nfkb2 (GeneID 18034) | 3 | -0.543 |
| Nfkb2 (GeneID 18034) | 4 | 1.34 |
| Nfkb2 (GeneID 18034) | 5 | -0.895 |
| Nfkb2 (GeneID 18034) | 6 | 0.916 |
| Jun (GeneID 16476) | 1 | -0.943 |
| Jun (GeneID 16476) | 2 | -2.32 (active) |
| Jun (GeneID 16476) | 3 | -0.421 |
| Jun (GeneID 16476) | 4 | -1.29 |
| Jun (GeneID 16476) | 5 | 0.31 |
| Jun (GeneID 16476) | 6 | -0.127 |
| Ifnar1 (GeneID 15975) | 1 | -0.337 |
| Ifnar1 (GeneID 15975) | 2 | 1.54 (active) |
| Ifnar1 (GeneID 15975) | 3 | -1.34 |
| Ifnar1 (GeneID 15975) | 4 | -0.776 |
| Ifnar1 (GeneID 15975) | 5 | -0.181 |
| Ifnar1 (GeneID 15975) | 6 | -1.07 |
| Tirap (GeneID 117149) | 1 | -1.89 (active) |
| Tirap (GeneID 117149) | 2 | -0.108 |
| Tirap (GeneID 117149) | 3 | -3.38 (active) |
| Tirap (GeneID 117149) | 4 | -1.35 |
| Tirap (GeneID 117149) | 5 | 0.215 |
| Tirap (GeneID 117149) | 6 | -1.91 (active) |
| Ets1 (GeneID 23871) | 1 | 0.155 |
| Ets1 (GeneID 23871) | 2 | 0.876 |
| Ets1 (GeneID 23871) | 3 | -1.53 (active) |
| Ets1 (GeneID 23871) | 4 | 2.82 (active) |
| Ets1 (GeneID 23871) | 5 | -2.17 (active) |
| Ets1 (GeneID 23871) | 6 | -0.151 |
| Cd180 (GeneID 17079) | 1 | -0.997 |
| Cd180 (GeneID 17079) | 2 | 0.425 |
| Cd180 (GeneID 17079) | 3 | 1.2 |
| Cd180 (GeneID 17079) | 4 | -0.379 |
| Cd180 (GeneID 17079) | 5 | -0.742 |
| Cd180 (GeneID 17079) | 6 | -0.802 |
| Tlr5 (GeneID 53791) | 1 | -1.15 |
| Tlr5 (GeneID 53791) | 2 | 0.996 |
| Tlr5 (GeneID 53791) | 3 | -0.109 |
| Tlr5 (GeneID 53791) | 4 | -0.144 |
| Tlr5 (GeneID 53791) | 5 | 1.09 |
| Tlr5 (GeneID 53791) | 6 | -1.34 |
| Il12a (GeneID 16159) | 1 | -0.3 |
| Il12a (GeneID 16159) | 2 | -0.637 |
| Il12a (GeneID 16159) | 3 | 0.663 |
| Il12a (GeneID 16159) | 4 | 0.0943 |
| Il12a (GeneID 16159) | 5 | 1.13 |
| Il12a (GeneID 16159) | 6 | -0.963 |
| Akt3 (GeneID 23797) | 1 | 0.573 |
| Akt3 (GeneID 23797) | 2 | -0.13 |
| Akt3 (GeneID 23797) | 3 | -0.835 |
| Akt3 (GeneID 23797) | 4 | -1.49 |
| Akt3 (GeneID 23797) | 5 | -0.707 |
| Akt3 (GeneID 23797) | 6 | -0.869 |
| Mapk12 (GeneID 29857) | 1 | -0.221 |
| Mapk12 (GeneID 29857) | 2 | -0.116 |
| Mapk12 (GeneID 29857) | 3 | 0.571 |
| Mapk12 (GeneID 29857) | 4 | -0.324 |
| Mapk12 (GeneID 29857) | 5 | -0.314 |
| Mapk12 (GeneID 29857) | 6 | -0.431 |
| Traf6 (GeneID 22034) | 1 | -2.5 (active) |
| Traf6 (GeneID 22034) | 2 | -2.74 (active) |
| Traf6 (GeneID 22034) | 3 | -0.848 |
| Traf6 (GeneID 22034) | 4 | -1.45 |
| Traf6 (GeneID 22034) | 5 | -1.7 (active) |
| Traf6 (GeneID 22034) | 6 | -0.964 |
| Tlr9 (GeneID 81897) | 1 | -0.617 |
| Tlr9 (GeneID 81897) | 2 | -0.904 |
| Tlr9 (GeneID 81897) | 3 | 0.0545 |
| Tlr9 (GeneID 81897) | 4 | -0.67 |
| Tlr9 (GeneID 81897) | 5 | 0.268 |
| Tlr9 (GeneID 81897) | 6 | -1.33 |
| Ikbkb (GeneID 16150) | 1 | -0.188 |
| Ikbkb (GeneID 16150) | 2 | -1.23 |
| Ikbkb (GeneID 16150) | 3 | -2.03 (active) |
| Ikbkb (GeneID 16150) | 4 | -1.26 |
| Ikbkb (GeneID 16150) | 5 | -0.981 |
| Ikbkb (GeneID 16150) | 6 | 0.0603 |

Targets above whose gene name begins with C or c (6):
| gene | reagent | p65 nuclear entry z-score, replicate mean |
| --- | --- | --- |
| Cd180 (GeneID 17079) | 1 | -0.997 |
| Cd180 (GeneID 17079) | 2 | 0.425 |
| Cd180 (GeneID 17079) | 3 | 1.2 |
| Cd180 (GeneID 17079) | 4 | -0.379 |
| Cd180 (GeneID 17079) | 5 | -0.742 |
| Cd180 (GeneID 17079) | 6 | -0.802 |
